Data on 2 molecules can be found in article doi:10.1101/2024.11.09.622756.

Assay [1] addresses T1, GpsB (bacterial two-hybrid fusion) (Streptococcus pneumoniae R6) (UniProt Q8DR57).
T1 sequence: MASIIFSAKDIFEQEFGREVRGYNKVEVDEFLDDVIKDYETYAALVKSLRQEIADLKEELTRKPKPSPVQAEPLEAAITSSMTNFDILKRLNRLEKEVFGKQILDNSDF
Nature of the assay: two-hybrid.

The target in assay [2] is mGFP-GarP (N-terminal GFP fusion of GarP, Spr1457) (Streptococcus pneumoniae R6) (UniProt Q8CYI0). Nature of the assay: co-IP.

Results are given in words; binding and its absence hold for the method and conditions named. Binding calls can cover weak binding; strength is not graded here. For some assays here: Tags and fused reporters may be left off the sequences shown. For some assays here: In cells and extracts the contact can be indirect.

As to “GarP (bacterial two-hybrid fusion used against GpsB) (from UniProt Q8CYI0)”, the binding entry in assay [1] is listed as “binds”.

B1: PBP1a (endogenous, S. pneumoniae) (enzyme, UniProt Q8DR59 1-719)
chain: MNKPTILRLIKYLSISFLSLVIAAIVLGGGVFFYYVSKAPSLSESKLVATTSSKIYDNKNQLIADLGSERRVNAQANDIPTDLVKAIVSIEDHRFFDHRGIDTIRILGAFLRNLQSNSLQGGSALTQQLIKLTYFSTSTSDQTISRKAQEAWLAIQLEQKATKQEILTYYINKVYMSNGNYGMQTAAQNYYGKDLNNLSLPQLALLAGMPQAPNQYDPYSHPEAAQDRRNLVLSEMKNQGYISAEQYEKAVNTPITDGLQSLKSASNYPAYMDNYLKEVINQVEEETGYNLLTTGMDVYTNVDQEAQKHLWDIYNTDEYVAYPDDELQVASTIVDVSNGKVIAQLGARHQSSNVSFGINQAVETNRDWGSTMKPITDYAPALEYGVYESTATIVHDEPYNYPGTNTPVYNWDRGYFGNITLQYALQQSRNVPAVETLNKVGLNRAKTFLNGLGIDYPSIHYSNAISSNTTESDKKYGASSEKMAAAYAAFANGGTYYKPMYIHKVVFSDGSEKEFSNVGTRAMKETTAYMMTDMMKTVLSYGTGRNAYLAWLPQAGKTGTSNYTDEEIENHIKTSQFVAPDELFAGYTRKYSMAVWTGYSNRLTPLVGNGLTVAAKVYRSMMTYLSEGSNPEDWNIPEGLYRNGEFVFKNGARSTWSSPAPQQPPSTESSSSSSDSSTSQSSSTTPSTNNSTTTNPNNNTQQSNTTPDQQNQNPQPAQP
With B1, the binding entry in assay [2] is listed as “binds”.
